Values from PubChem BioAssay AID686937 (Drosophila RNAi Screening Center, 2013)
The deposit covers about 23,000 reagents; shown is an unselected part of those that have a named target and a result. 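Reduced-secretion tags in replicate 1 do not always agree with the z-scores; no criterion for assigning the tags was given.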 The numbers tell different reagents against one gene apart. A plus sign joins genes that one reagent is predicted to hit. Further read-outs or replicates are left out here. The record does not give: the amount of reagent.

Aim: 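Genes in the fly needed for secretion of protein constitutively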 (primary screen)
Cell system: Drosophila S2 cells expressing secreted horseradish peroxidase
Knock-down reagent: long dsRNA against Drosophila genes
Timing: about 5.5 days (5 days dsRNA, then 12 h reporter induction)
Treatment: reporter expression induced after 5 days of dsRNA, read 12 h later; inducer not stated
Read-out: 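After 5 days of dsRNA and 12 h of reporter induction, medium peroxidase read by chemiluminescence and scored as per-plate z-score; higher values mean more reporter released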
Reading the numbers: z-score: higher = more reporter secreted into medium

gene	reagent	z-score, replicate 1
CG11367	1	-0.69
CG14434	1	0.27
CG9171	1	0.41
CG9171	2	-0.22
Gyc89Da (Guanylyl cyclase at 89Da)	1	-0.29
CG2493	1	-0.08
Obp69a (Odorant-binding protein 69a)	1	0.27
Pif1 (Pif1 DNA helicase)	1	-0.27
bap (bagpipe)	1	0.53
CG10914	1	0.39
tkv + CR14033 + tRNA:Asp-GTC-2-1 + 1 more	1	0.2
CG34297	1	-0.04
CG1575	1	0.52
AttA (Attacin-A)	1	0.42
MRG15 (MORF-related gene 15)	1	0.64
Agps (Alkylglycerone phosphate synthase)	1	0.19
mthl2 (methuselah-like 2)	1	0.11
Gcat (Glycine C-acetyltransferase)	1	0.7
Ttc19 (Tetratricopeptide repeat domain 19)	1	0.23
Qsox3 (Quiescin sulfhydryl oxidase 3)	1	0.11
aly (always early)	1	0.21
aly (always early)	2	0.23
CG11635	1	0.33
CG31706	1	-0.73
CG6565	1	0.13
CG33143	1	0.18
CG33143	2	-0.26
CG9822	1	-0.26
CG33225	1	0
tun (tungus)	1	0.22
tun (tungus)	2	0.26
CG11584	1	0.5
CG3529	1	0.34
AdoR (Adenosine receptor)	1	-0.21
CG8617	1	0.11
ERR (estrogen-related receptor)	1	0.01
DIP2 (DISCO Interacting Protein 2)	1	0.08
CG13891	1	0.4
Cyp12a4 (Cytochrome P450 12a4)	1	0.27
CG7382	1	0.01
Alp8 (Alkaline phosphatase 8)	1	0.24
CG34326 (retired record)	1	0.1
CG11970	1	0.26
Nacalpha (Nascent polypeptide associated complex protein alpha subunit)	1	-0.87
Or35a (Odorant receptor 35a)	1	-0.09
CG4198	1	0.42
GAPcenA (GTPase activating protein and centrosome-associated)	1	0.22
CG32302	1	0.17
Socs44A (Suppressor of Cytokine Signaling at 44A)	1	0.27
CG14326	1	-0.19
geminin	1	0.29
Jhbp1 (Juvenile hormone binding protein 1)	1	-0.22
CG13071	1	0.08
Snx1 (Sorting nexin 1)	1	0.06
Tsp42Eg (Tetraspanin 42Eg)	1	0.24
Acp62F (Accessory gland protein 62F)	1	0.2
